Measurements reported in patent US20250051442A1 (UNIVERSITY OF TSUKUBA, published 2025).
Positions count from the first letter of the chain named. These are yes or no findings as the source states them, for the method shown. Some entries that bind do so weakly or less than the wild type. Blank lines part the entries; values can stand above or below the binder they belong to.

Target: T1, human DNAM-1 (human, UniProt Q15762 19-336)
T1 construct: whole, on cells; also called hDNAM-1; CD226
T1 sequence (looked up): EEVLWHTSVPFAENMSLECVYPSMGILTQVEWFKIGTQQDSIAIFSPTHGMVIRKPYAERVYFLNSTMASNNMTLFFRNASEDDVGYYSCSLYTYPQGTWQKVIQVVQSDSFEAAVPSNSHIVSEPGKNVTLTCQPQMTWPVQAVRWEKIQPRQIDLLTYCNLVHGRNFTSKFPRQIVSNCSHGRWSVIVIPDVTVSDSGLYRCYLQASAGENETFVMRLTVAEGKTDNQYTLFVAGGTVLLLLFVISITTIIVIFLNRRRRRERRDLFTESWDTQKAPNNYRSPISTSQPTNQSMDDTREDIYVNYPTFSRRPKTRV
Assay: flow cytometry on hDNAM-1/BW cells, antibody from HEK293 transfectants

binding: binds
B1: humanized anti-DNAM-1 antibody hAKB1-C (antibody, V domains shown)
VH: QVQLQESGPGLVKPSETLSLTCTVSGYSITSGYYWNWIRQPPGKGLEWMGYISYDGSNNYNPSLKNRVTISRDTSKNQFSLKLSSVTAADTAVYYCARAYYGNYVGYFDVWGQGTTVTVSS
VL: DIQMTQSPSSLSASVGDRVTITCKASQSVSNDVAWYQQKPGKAPKLLIYYASNRYTGVPSRFSGSGSGTDFTFTISSLQPEDIATYYCQQDYSSPLTFGGGTKVEIKR

binding: binds
B2: humanized anti-DNAM-1 antibody hAKB1-D (antibody, V domains shown)
VH: B1 VH with T30S
VL: B1 VL
